Structures can show the parent of a compound that is named as a salt. The list shows a part of the results. The calls rarely recur for the same compound in another form.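 Kinases, fused to nanoluciferase, were expressed in K562 cells; luminescence was measured every 4 h from 2 to 18 h as percent of control (DMSO = 100%, positive control = 0%). A time point is decreased if signal falls significantly (2 sigma). Hits were called by the authors by a rule that is not shown; the count of time points alone does not decide it.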
Molecular target: MAPKAPK2 (UniProt P49137)
Experiment: kinase-Nluc reporter destabilization hit call (1 = scored as downregulated) (binary); higher = compound decreases kinase abundance
Conditions: K562; 2-18 h

Amino acid sequences for entries named in this document (tags omitted).
UniProt P49137, whole entry, looked up: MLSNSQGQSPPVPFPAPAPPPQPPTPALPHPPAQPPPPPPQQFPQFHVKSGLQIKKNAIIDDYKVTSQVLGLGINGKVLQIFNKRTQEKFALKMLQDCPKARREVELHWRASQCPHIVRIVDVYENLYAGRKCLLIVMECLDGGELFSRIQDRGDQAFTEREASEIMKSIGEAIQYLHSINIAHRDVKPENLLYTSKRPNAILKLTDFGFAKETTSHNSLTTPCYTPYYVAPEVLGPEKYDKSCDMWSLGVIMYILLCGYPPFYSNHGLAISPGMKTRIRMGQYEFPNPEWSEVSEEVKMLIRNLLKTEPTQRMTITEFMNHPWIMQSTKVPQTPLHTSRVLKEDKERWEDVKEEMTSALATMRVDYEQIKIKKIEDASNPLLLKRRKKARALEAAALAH

kinase-Nluc reporter destabilization hit call, inactive:
CN(C)c1nc2c(Br)c(Br)c(Br)c(Br)c2n1CC(=O)O (10 µM) 0
COc1cc(N2CCC(N(C)C)CC2)ccc1Nc1ncc(Cl)c(Nc2ccccc2P(C)(C)=O)n1 (2.5 µM) 0
CC(C)C[C@H](NC(=O)[C@H](CCCCN)NC(=O)[C@H](CO)NC(=O)[C@@H](N)CC(C)C)C(N)=O [LSKL, Inhibitor of Thrombospondin (TSP-1) (TFA)] (10 µM) 0
O=C(Nc1ccc(Cl)c(Cl)c1)Nc1ccc2nnsc2c1 (10 µM) 0
CC(C)Oc1ccc(-c2cnc3c(-c4ccnc5ccccc45)cnn3c2)cc1 (10 µM) 0
O=C(CCCCCn1cc(Nc2ncc(Cl)c(Nc3ccc(Cl)cc3)n2)cn1)NO (2.5 µM) 0
CC(=O)NCCc1c[nH]c2ccc(O)cc12 [N-Acetyl-5-hydroxytryptamine] (10 µM) 0
O=C(c1ccc(Nc2nccc(-c3cc4ccccc4s3)n2)cc1)N1CCC(N2CCCC2)CC1 (2.5 µM) 0
C=CC(=O)N1CCC[C@@H](n2nc(C(=O)Nc3ccc(CC(=O)N(C)C)c(C)c3C)c3c(N)ncnc32)C1 (10 µM) 0
CC(CCc1ccccn1)(CCc1ccccn1)C(=O)c1ccccc1 (10 µM) 0
CC[C@@H]1[C@H](F)C(=O)N[C@@H]1COc1nccc2cc(C(N)=O)c(OC)cc12 (10 µM) 0
Nc1cc(C(F)F)c(-c2nc(N3C4CCC3COC4)nc(N3C4CCC3COC4)n2)cn1 (2.5 µM) 0
Oc1ccccc1C(=S)N1CCCC1 (10 µM) 0
COc1ccc(-n2c(C)c([N+](=O)[O-])c3ccc(O)cc32)cc1 (10 µM) 0
CN(C)Cc1cccc(N=C(c2ccccc2)c2c(O)[nH]c3cc(C(N)=O)ccc23)c1 (10 µM) 0
CCCCNC(=N)NC(=N)N [Buformin (hydrochloride)] (2.5 µM) 0
O=c1ccoc2cc(O)ccc12 [7-Hydroxy-4H-chromen-4-one] (10 µM) 0
C=CC(=O)Nc1cccc(-n2c(=O)cc(C)c3cnc(Nc4ccc(OCCN(C)C)cc4OC)nc32)c1 (10 µM) 0
O=c1[nH]ccc2cc(OC3CCNCC3)ccc12 (10 µM) 0
CCCCOc1ccc(CC/C=C2\SC(=O)N(CCN)C2=O)cc1 [K145 (hydrochloride)] (2.5 µM) 0
CC(C)(O)[C@@H]1CC[C@](C)([C@H]2[C@@H](O)C[C@@]3(C)[C@@H]4C[C@H](O[C@@H]5O[C@H](CO)[C@@H](O)[C@H](O)[C@H]5O)[C@H]5C(C)(C)[C@@H](O[C@@H]6OC[C@@H](O)[C@H](O)[C@H]6O[C@@H]6O[C@H](CO)[C@@H](O)[C@H](O)[C@H]6O)CC[C@@]56C[C@@]46CC[C@]23C)O1 [Astragaloside VI] (10 µM) 0
O=C1NC(=O)C(c2cn(-c3ccccc3)nc2-c2ccc(F)cc2)N1 (stereo unspecified) (10 µM) 0
C[C@@H]1COCCN1c1cc(C2([S@](C)(=N)=O)CC2)nc(-c2cc[nH]c3nccc2-3)n1 [Ceralasertib] (2.5 µM) 0
CN(C)Cc1cccc(N=C(c2ccccc2)c2c(O)[nH]c3cc(C(=O)N(C)C)ccc23)c1 (10 µM) 0
CN1CCN(CCCNc2ncc(Cl)c(-c3cc4c(C(=O)NC5CC5)cccc4s3)n2)CC1 (10 µM) 0
CC[C@H](Nc1ncnc2[nH]cnc12)c1oc2ccccc2c(=O)c1-c1cccc(F)c1 [Tenalisib] (10 µM) 0
O=C1NC(=O)C(c2cnc3ccccn23)=C1c1cn2c3c(cc(F)cc13)CN(C(=O)N1CCCCC1)CC2 (2.5 µM) 0
COc1c(C)c(C(=O)c2ccc(N)c(C(=O)O)c2)n2ccccc12 (10 µM) 0
N#Cc1ccc(-c2c(-c3ncn[nH]3)sc(N3CCOCC3)c2C#N)c(F)c1 (10 µM) 0
N#C/C(=C(/N)Sc1ccc(N)cc1)c1ccccc1C(F)(F)F (10 µM) 0
O=C(Nc1ccc(Cl)cc1)C1CCCN(C(=O)c2cccc(-c3ccco3)c2)C1 (stereo unspecified) (2.5 µM) 0

Looked up by compound from the list above (two):
kinase-Nluc reporter destabilization hit call, inactive:
CCCCOc1ccc(CC/C=C2\SC(=O)N(CCN)C2=O)cc1 [K145 (hydrochloride)] (2.5 µM) 0
CC(C)(O)[C@@H]1CC[C@](C)([C@H]2[C@@H](O)C[C@@]3(C)[C@@H]4C[C@H](O[C@@H]5O[C@H](CO)[C@@H](O)[C@H](O)[C@H]5O)[C@H]5C(C)(C)[C@@H](O[C@@H]6OC[C@@H](O)[C@H](O)[C@H]6O[C@@H]6O[C@H](CO)[C@@H](O)[C@H](O)[C@H]6O)CC[C@@]56C[C@@]46CC[C@]23C)O1 [Astragaloside VI] (10 µM) 0

— the supplement of paper PMC12823440, “Inhibitors supercharge kinase turnover through native proteolytic circuits” (Nature, 2025)
